# Screening data, single-dose tests

The chains behind the UniProt entries cited, without tags or fusion partners. Residues count along the entry.
UniProt I6X8D2, whole entry: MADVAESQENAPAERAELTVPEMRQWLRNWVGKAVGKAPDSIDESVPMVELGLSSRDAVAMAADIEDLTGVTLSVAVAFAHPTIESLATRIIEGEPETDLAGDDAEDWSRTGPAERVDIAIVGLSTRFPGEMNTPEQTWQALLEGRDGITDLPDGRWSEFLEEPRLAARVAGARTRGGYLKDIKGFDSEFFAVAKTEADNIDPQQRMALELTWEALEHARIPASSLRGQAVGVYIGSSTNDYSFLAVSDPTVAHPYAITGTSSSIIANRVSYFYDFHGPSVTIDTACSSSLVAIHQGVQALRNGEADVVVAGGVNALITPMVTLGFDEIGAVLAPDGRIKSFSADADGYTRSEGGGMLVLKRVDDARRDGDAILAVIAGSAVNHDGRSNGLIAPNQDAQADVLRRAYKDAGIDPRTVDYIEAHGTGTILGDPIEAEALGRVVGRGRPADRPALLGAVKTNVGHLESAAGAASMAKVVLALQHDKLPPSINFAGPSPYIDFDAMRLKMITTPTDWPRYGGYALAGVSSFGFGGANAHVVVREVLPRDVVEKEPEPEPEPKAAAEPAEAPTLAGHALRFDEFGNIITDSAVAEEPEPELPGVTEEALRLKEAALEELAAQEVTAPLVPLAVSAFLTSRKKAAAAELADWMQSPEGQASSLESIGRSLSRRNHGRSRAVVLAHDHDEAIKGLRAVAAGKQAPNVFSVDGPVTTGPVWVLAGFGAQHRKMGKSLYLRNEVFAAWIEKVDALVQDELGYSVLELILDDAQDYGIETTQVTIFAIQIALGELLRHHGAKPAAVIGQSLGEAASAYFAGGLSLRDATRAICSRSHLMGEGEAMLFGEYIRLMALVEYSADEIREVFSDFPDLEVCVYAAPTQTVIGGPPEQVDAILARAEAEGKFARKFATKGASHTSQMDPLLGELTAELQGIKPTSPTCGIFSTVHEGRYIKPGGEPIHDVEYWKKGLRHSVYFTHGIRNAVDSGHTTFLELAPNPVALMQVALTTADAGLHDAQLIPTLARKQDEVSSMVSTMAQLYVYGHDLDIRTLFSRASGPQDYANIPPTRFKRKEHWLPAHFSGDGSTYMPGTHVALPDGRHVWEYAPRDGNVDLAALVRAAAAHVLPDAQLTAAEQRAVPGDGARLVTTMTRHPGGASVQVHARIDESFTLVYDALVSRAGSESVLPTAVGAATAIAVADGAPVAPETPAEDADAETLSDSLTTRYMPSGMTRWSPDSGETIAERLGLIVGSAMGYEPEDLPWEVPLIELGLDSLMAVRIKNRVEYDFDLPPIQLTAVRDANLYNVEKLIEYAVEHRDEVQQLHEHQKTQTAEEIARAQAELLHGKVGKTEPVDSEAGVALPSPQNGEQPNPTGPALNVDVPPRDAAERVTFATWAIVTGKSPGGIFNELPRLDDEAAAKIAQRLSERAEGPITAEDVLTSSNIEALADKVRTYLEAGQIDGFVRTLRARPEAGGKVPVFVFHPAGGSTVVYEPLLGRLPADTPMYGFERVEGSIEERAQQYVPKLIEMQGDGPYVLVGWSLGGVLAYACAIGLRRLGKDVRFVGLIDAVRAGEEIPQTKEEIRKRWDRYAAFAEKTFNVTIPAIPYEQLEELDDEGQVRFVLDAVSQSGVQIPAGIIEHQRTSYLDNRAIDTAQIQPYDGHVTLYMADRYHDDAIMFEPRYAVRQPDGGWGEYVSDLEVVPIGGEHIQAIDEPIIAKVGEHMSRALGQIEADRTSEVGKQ
UniProt Q8IDJ8, 1-583: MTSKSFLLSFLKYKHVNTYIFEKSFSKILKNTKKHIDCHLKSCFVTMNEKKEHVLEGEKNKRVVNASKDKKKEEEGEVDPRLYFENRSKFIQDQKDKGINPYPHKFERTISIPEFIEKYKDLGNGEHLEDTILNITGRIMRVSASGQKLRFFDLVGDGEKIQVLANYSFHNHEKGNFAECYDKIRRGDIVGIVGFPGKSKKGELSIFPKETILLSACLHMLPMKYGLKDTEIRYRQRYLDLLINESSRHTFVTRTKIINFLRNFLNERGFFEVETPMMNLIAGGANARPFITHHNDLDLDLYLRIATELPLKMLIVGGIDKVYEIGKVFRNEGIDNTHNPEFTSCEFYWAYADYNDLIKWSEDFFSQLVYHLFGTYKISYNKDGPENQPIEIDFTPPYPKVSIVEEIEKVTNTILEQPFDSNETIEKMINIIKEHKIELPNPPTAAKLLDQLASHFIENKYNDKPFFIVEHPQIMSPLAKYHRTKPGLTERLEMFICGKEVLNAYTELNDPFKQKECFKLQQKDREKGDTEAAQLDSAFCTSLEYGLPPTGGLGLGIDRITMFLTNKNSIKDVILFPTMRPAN
UniProt P9WNZ1, whole entry: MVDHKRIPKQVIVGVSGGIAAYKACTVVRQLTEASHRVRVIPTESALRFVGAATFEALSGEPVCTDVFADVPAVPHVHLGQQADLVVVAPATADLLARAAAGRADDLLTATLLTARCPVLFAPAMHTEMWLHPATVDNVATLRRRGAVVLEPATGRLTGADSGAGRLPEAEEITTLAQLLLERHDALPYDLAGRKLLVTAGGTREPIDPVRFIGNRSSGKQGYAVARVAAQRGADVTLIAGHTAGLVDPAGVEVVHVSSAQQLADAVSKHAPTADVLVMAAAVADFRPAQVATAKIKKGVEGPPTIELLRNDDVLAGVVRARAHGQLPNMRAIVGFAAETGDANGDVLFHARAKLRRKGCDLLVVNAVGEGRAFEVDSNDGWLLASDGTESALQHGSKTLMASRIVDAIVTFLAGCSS

Each number is a percent effect as filed.
How 0% and 100% were set is not recorded. Most values in the screen are low, and negative values occur.
The compounds are a random part of those screened.
Two or more numbers in one place are separate tests of the same structure; such repeats can differ widely.
A dash means the value is not listed here; it may have been measured.

Pks13 thioesterase: 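Enzyme assay of the thioesterase domain of polyketide synthase 13; the read-out is not stated. Target: Polyketide synthase Pks13, Mycobacterium tuberculosis (UniProt I6X8D2). Compounds at 30 µM. The record gives no direction; the compounds picked for IC50 retests had high values, so higher reads as stronger inhibition. Of about 67,000 compounds tested this way, about 300 (0.46%) reached 50% or more in at least one test.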
PfKRS1: 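Lysine-tRNA ligase, Plasmodium falciparum 3D7 (UniProt Q8IDJ8). Enzyme assay of the cytosolic lysyl-tRNA synthetase in 384-well plates, read by luminescence. Concentration: 30 µM. Higher reads as stronger inhibition, judged from the few compounds that gave an IC50. About 69,000 compounds were tested under these conditions; 0.071% (about 49) showed 50% or more at least once.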
CoaBC: 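Coenzyme A biosynthesis protein CoaBC, Mycobacterium tuberculosis (UniProt P9WNZ1). Enzyme assay of CoaBC with a phosphate dye (Biomol Green) read at 650 nm. Concentration: 30 µM. Direction is inferred from only a few compounds that gave an IC50; most scored high, so higher reads as stronger inhibition. Most strong results did not repeat in a second test. Of about 67,000 compounds tested this way, about 40 (0.06%) reached 50% or more in at least one test.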

| SMILES | Pks13 thioesterase | PfKRS1 | CoaBC |
|---|---|---|---|
| `CCN(CC)C1CCN(C(=O)NCc2cccc(NC(C)=O)c2)C1` (stereo not given) | -13.6 | 2.26 | 6.075 |
| `COCC[C@]1(O)CCN(C(=O)CCc2cnn(C)c2)C[C@H]1C` | -13.89 | 7.367 | 13.64 |
| `Cc1occc1C(=O)N1CCc2c(CNc3ncccn3)cncc2C1` | -19.54 | -2.531 | 7.868 |
| `CN(C1CCCCC1)S(=O)(=O)NC1CCCN(c2ncccn2)C1` (stereo not given) | -34.97 | 7.49 | 6.013 |
| `CSCC(=O)N1CCc2c(cnc(C)c2-c2noc(-c3cscn3)n2)C1` | -6.357 | 2.073 | 5.281 |
| `c1ccc(C(CNc2ncccn2)N2CCOCC2)nc1` (stereo not given) | -33.65 | 2.02 | 7.2 |
| `O=C1CC2(CCN(C(=O)c3ccccn3)C2)Nc2ccccc2N1` (stereo not given) | -6.924 | 2.848 | 1.053 |
| `CC1(C)CN(CCC(=O)NCc2cccc(Cl)c2)CC[C@]1(C)O` | -8.806 | 6.28 | 2.577 and 21.21 |
| `Cc1nc(C)c(C(=O)Nc2cc(N3CCC(C)CC3)ncn2)s1` | -7.495 | 4.005 | 0.6274 |
| `Cc1cc(NC(=O)c2nc(N3CCCC3)ncc2Cl)nc(C(C)C)n1` | -2.61 | 10.25 | -1.449 |
| `O=C(C1CCOCC1)N1C[C@H]2CC[C@@H]1CN(Cc1ccncc1)C2` | -3.88 | 4.266 | 5.109 |
| `Cc1nccn1CC1CCCN1CCCc1nc(-c2cccs2)no1` (stereo not given) | -4.963 | -0.1445 | 1.068 |
| `Cc1cc(C)n(CC2CN(Cc3nc(C4CC4)no3)CCO2)n1` (stereo not given) | 0.4566 | -0.1474 | -9.383 |
| `c1ccc(OCCCN2CCOC(CNc3cccnn3)C2)cc1` (stereo not given) | -12.68 | 1.992 | -1.673 |
| `Cn1nc(CN2CCCCC2)c2c1CN(C(=O)c1ccoc1)C2` | -2.463 | 8.065 | 1.062 |
| `Cc1nn(C)c(C)c1CC(=O)N1CCC(N(C)c2cccnn2)CC1` | -7.39 | -1.079 | -0.266 |
| `Cc1cc(C(=O)N2CCc3ncnc(N4CCSCC4)c3CC2)[nH]n1` | -10.99 | 0.6737 | -0.8537 |
| `CCS(=O)(=O)N1CCC2(CCCN(c3ncc(F)cn3)C2)C1` (stereo not given) | -17.71 | 5.406 | 5.533 |
| `CCc1nccn1-c1cncc(C2CCCN2Cc2ccc(F)cc2)n1` (stereo not given) | -15.47 | -3.061 | 1.702 |
| `CCCN1CCC(c2nc3ccc(-c4ccccc4)cn3n2)CC1` | -4.541 | 0.8675 | 6.064 |
| `Cc1nc(N2CCC(CN3CCCC3)CC2)c2cnn(C)c2n1` | -15.58 | 6.607 | 29.63 and 25.7 |
| `CNc1cc(N2CCCC2CNCc2cccc(C#N)c2)ncn1` (stereo not given) | -9.742 | 1.987 | 5.838 |
| `COCCC(=O)N1CCC(c2ncncc2-c2ccnc(N)c2)C1` (stereo not given) | 0.2663 | -0.5666 | 6.888 |
| `COc1cccc(CN2CC[C@H]3[C@@H](C2)[C@H](c2ccsc2)CN3C(C)=O)c1` | 12.47 | 2.589 | 2.771 |
| `CC(NC(=O)CCCc1nc(C(C)(C)C)no1)c1nnc2n1CCC2` (stereo not given) | -32.27 | 3.504 | 0.4292 |
| `COCCn1c(-c2cccc(OC)c2)cnc1NC(=O)NC1CCCC1` | -23.57 | 8.504 | 1.772 |
| `N#CCCNC(=O)CSc1ccc(F)cc1F` | -5.488 | 3.673 | 0.7937 |
| `CNc1ncccc1C(=O)N1CCN(C)C2(CCN(C)CC2)C1` | -36.63 | 1.576 | - |
| `OC1(CN2CCCCC2)CCN(c2cccc(C(F)(F)F)n2)C1` (stereo not given) | -17.08 | 7.568 | 6.42 |
| `CSc1nccc(NCC2CNCCOC2)n1` (stereo not given) | -11.01 | 1.978 | -3.478 |
| `N#Cc1ccc(N2CCCN(CCCn3cncn3)CC2)cc1` | -10.05 | -0.06969 | 6.22 |
| `CCNC(=O)NCc1ccnc(N(C)C)n1` | 5.756 | -0.8926 | -2.683 |
| `CCc1cccc(OC2CN(C(=O)[C@@H](N)CCSC)C2)c1` | -7.24 | 0.8478 | -8.261 |
| `COC1CCCN(C(=O)NCC(F)F)C1` (stereo not given) | -12.91 | -1.409 | -1.489 |
| `c1cnc2c(c1)cc(C1CCOCC1)n2CCN1CCOCC1` | -25.41 | 10.38 | -5.278 |
| `CN(C)C(=O)Cc1ccc(NCc2nccn2C)cc1` | -31.45 | -6.007 | - |
| `O=C(Nc1ccc(F)cc1)C1CSCN1` (stereo not given) | -4.575 | -3.73 | -2.41 |
| `Cc1cc(C)c(-c2nc(-c3c(C)ncc4c3CCNC4)no2)o1` | -8.342 | 2.888 | 2.554 |
| `Cc1nc(C)n(CC2CN(Cc3ccccc3C#N)CCO2)n1` (stereo not given) | -11.35 | 0.344 | 0.3911 |
| `Cc1noc(C)c1CCC(=O)N(C)C(C)c1cccs1` (stereo not given) | -22.66 | 6.192 | 1.831 |
| `COc1nn(C)cc1-c1nnc(SCc2cccnc2)n1C` | -10.25 | 7.44 | 0.5612 |
| `CCc1noc(CC)c1CC(=O)N1CCN(C(C#N)C(C)C)CC1` (stereo not given) | -26.38 | 1.823 | 3.478 |
| `CCc1nnc2n1CCN(C(=O)c1ccc3[nH]nnc3c1)C2` | -17.5 | 6.088 | 2.551 |
| `CC1CCN(c2ncc3c(n2)CN(Cc2cccc(F)c2)C3=O)CC1` | 0.6069 | -0.0378 | 1.734 |
| `CCC(C)N1Cc2c(C(=O)N3CCOCC3)nn(C)c2C1` (stereo not given) | -3.867 | 2.474 | 1.235 |
| `CS(=O)(=O)NCc1cc(-c2cc(F)cc(F)c2)nc(N2CC[C@H](O)C2)n1` | 146.9 | 4.299 | 3.012 |
| `COc1cccc(-c2nc(C)c(C(=O)NC(CO)CCSC)s2)c1` (stereo not given) | -24.33 | 4.093 | 3.634 |
| `CCOc1cc(C)nc(N2CCN(C(=O)c3cscn3)CC2)n1` | -10.47 | -0.06591 | 4.337 |
| `CSCC(=O)NCc1cc(Br)ccc1OC(F)F` | -0.6326 | 5.284 | 6.198 |
| `CCS(=O)(=O)N1CCCC2(COCCN(c3nncs3)C2)C1` (stereo not given) | -28.85 | 8.579 | 7.943 |
| `COCC1CC2(CCN(Cc3cnn(C)c3)CC2)CN1c1ncccn1` (stereo not given) | -13.84 | 0.963 | -7.273 |
| `Cn1cc(C2(C)CN(c3ncccc3C#N)CCO2)cn1` (stereo not given) | 31.61 | 2.741 | 4.912 |
| `Cc1ccccc1C(CNc1ncnc2c1CCNC2)N(C)C` (stereo not given) | -25.38 | 0.2112 | -8.418 |
| `Cc1cc(=O)[nH]cc1C(=O)N1CCN(C)c2ccccc2C1` | -4.887 | 3.372 | 7.438 |
| `CCN1CC(COC(C)(C)C)Oc2ccncc2S1(=O)=O` (stereo not given) | 8.786 | 3.261 | 2.086 |
| `Cc1cc2c(=O)n3c(nc2s1)CCN(Cc1cnc(C)n1C)CC3` | -0.231 | 2.529 | 0.7353 |
| `O=C(CCCc1ccccn1)NCC(O)c1ccccc1Cl` (stereo not given) | -12.1 | 4.829 | 0.7371 |
| `O=C(C1CCOCC1)N1C[C@H]2CNC[C@H]2C1` | -38.12 | 5.932 | 4.505 |
| `Cc1ccc(CNC(=O)Cn2c(=O)c3cccnc3n2C)cc1F` | -7.165 | -0.9942 | 2.81 |
| `O=c1[nH]c2c(-c3ccccn3)nsc2c(=O)n1CC1CCCO1` (stereo not given) | 6.032 | 4.694 | 8.015 |
| `CNC(=O)c1cccc(CNC(C)c2cc(Cl)ccc2OC)c1` (stereo not given) | 6.012 | -1.447 | -5.556 |
| `COc1ccc(-c2cnc(NC(C)=O)[nH]2)cc1` | -7.78 | 3.659 | 3.89 |
| `CCc1ncc(CN2CCCN(CC3CC3)C(C(C)C)C2)cn1` (stereo not given) | -26.73 | 4.243 | 0.9756 |
| `CC(NCc1c(C(C)C)nn(C)c1N1CCOCC1)C(N)=O` (stereo not given) | 0.478 | -6.424 | -1.036 |
| `Cc1occc1C(=O)N1Cc2nccn2CC(CN(C)C)C1` (stereo not given) | 0.7565 | 1.459 | 2.843 |
| `Cn1cnnc1CC1CCN(Cc2c(Cl)cncc2Cl)CC1` | -3.728 | -1.479 | 1.238 |
| `CC(=O)N1CCC(c2nnc3ccc(C(=O)NC(C)C)cn23)C1` (stereo not given) | -33.11 | 2.434 | 4.303 |
| `Cc1cccc(NC2CCc3c2[nH]c(=O)n(C2CCCCC2)c3=O)c1C` (stereo not given) | -17.17 | 32.25 | 2.778 |
| `O=C(CCCOc1ccccc1)N1CCCC1Cn1cccn1` (stereo not given) | -8.433 | 0.3174 | 0.6386 |
| `Cc1cc(C(F)(F)F)c2c(=O)n(Cc3cc(C)on3)n(C)c2n1` | -2.366 | 8.953 | 1.402 |
| `CCC(Nc1nc(C)nc2onc(C)c12)c1nc(C)c(C)s1` (stereo not given) | 8.429 | 5.624 | 8.571 |
| `COc1ncc(CN2CCC3(CCNC(=O)CC3)CC2)cn1` | -17.52 | 6.872 | 5.368 |
| `CCCc1cc(C(=O)N2CCC3(CCCNC3=O)C2)cs1` (stereo not given) | -9.483 | 1.445 | 1.089 |
| `CCc1nc(CNCC2CCCN2c2cccnn2)cs1` (stereo not given) | -13.5 | 2.788 | 6.971 |
| `CCSCc1csc(-c2ccc(S(C)(=O)=O)cc2)n1` | -29.8 | 4.013 | 20.09 and 14.81 |

Repeated from the top, 7 entries:

SMILES	Pks13 thioesterase	PfKRS1	CoaBC
CCN(CC)C1CCN(C(=O)NCc2cccc(NC(C)=O)c2)C1 (stereo not given)	-13.6	2.26	6.075
COCC[C@]1(O)CCN(C(=O)CCc2cnn(C)c2)C[C@H]1C	-13.89	7.367	13.64
Cc1occc1C(=O)N1CCc2c(CNc3ncccn3)cncc2C1	-19.54	-2.531	7.868
CN(C1CCCCC1)S(=O)(=O)NC1CCCN(c2ncccn2)C1 (stereo not given)	-34.97	7.49	6.013
CSCC(=O)N1CCc2c(cnc(C)c2-c2noc(-c3cscn3)n2)C1	-6.357	2.073	5.281
c1ccc(C(CNc2ncccn2)N2CCOCC2)nc1 (stereo not given)	-33.65	2.02	7.2
O=C1CC2(CCN(C(=O)c3ccccn3)C2)Nc2ccccc2N1 (stereo not given)	-6.924	2.848	1.053

Measurements from “University of Dundee, Small-Polar-MMV Screening Library” (2021), ChEMBL document CHEMBL3988442.